At least one compound was matched to its structure with a doubt left.
What was measured:
Format in all cases: cell-based
Bacillus subtilis = assay: Antibacterial test, step dilution method in agar medium; conditions: 30° C., 48 hours
Description: (§1) The minimum inhibitory concentrations of (6E)-2,3-dihydrofarnesol synthesized in Synthesis Example 1 on bacteria listed in Table 1 were determined in the following manner by the step dilution method in an agar medium.
(§2) 10 g of brain heart infusion medium (manufactured by Nissui Seiyaku K.K.), 10 g of dry bouillon (manufactured by Nissui Seiyaku K.K.), 4 g of yeast extract powder (manufactured by Difco Laboratories) and 14 g of agar were added to 1,000 ml of distilled water and dissolved therein by heating. Then the obtained solution was pipetted in 10 ml portions into test tubes and sterilized under elevated pressure. Then it was heated again and sustained in the state of a solution. Subsequently, each test solution and ethanol or DMSO (dimethyl sulfoxide) free from any antimicrobial compound of the present invention (employed as a control) were added thereto in amounts of 5 to 200 μl. After mixing, the solutions were poured into plastic Petri dishes (inner diameter: 90 mm) and solidified.
(§3) The medium thus solidified in each Petri dish was divided into 9 parts. Then 5 μl portions of suspensions of the test microorganisms except acne bacteria in distilled water (cell or spore count: 10^8 -10^9 /ml) were inoculated thereinto and incubated at 30° C. for 48 hours.

Pseudomonas aeruginosa = assay: as above; conditions: 30° C., 48 hours
Description: as §1, §2, §3

Staphylococcus aureus = assay: as above; conditions: 30° C., 48 hours
Description: as §1, §2, §3

coryne bacteria = assay: as above; conditions: 30° C., 48 hours
Description: as §1, §2, §3

indigenous skin bacteria = assay: as above; conditions: 30° C., 48 hours
Description: as §1, §2, §3

acne bacteria = assay: Antibacterial test, acne bacteria in GAM medium; conditions: 37° C., 48 hours
Description: as §1
In the case of the acne bacteria, a GAM medium (manufactured by Nissui Seiyaku K.K.) was pipetted in 6 ml portions into screwed test tubes (10×105 mm) and sterilized. After adding sample solutions, a culture medium of the acne bacteria was inoculated in 5 μl portions and incubated at 37° C. for 48 hours followed by the judgement of the growth.

CC(C)=CCC/C(C)=C/CCC(C)CCO (stereo not drawn) [(b), (6E)-2,3-dihydrofarnesol]
growth (Bacillus subtilis; 10 ppm): + | growth (Bacillus subtilis; 20 ppm): - | growth (Bacillus subtilis; 30 ppm): - | growth (Bacillus subtilis; 50 ppm): - | growth (Bacillus subtilis; 100 ppm): - | growth (Pseudomonas aeruginosa; 10 ppm): + | growth (Pseudomonas aeruginosa; 20 ppm): - | growth (Pseudomonas aeruginosa; 30 ppm): - | growth (Pseudomonas aeruginosa; 50 ppm): - | growth (Pseudomonas aeruginosa; 100 ppm): - | growth (Staphylococcus aureus; 10 ppm): + | growth (Staphylococcus aureus; 20 ppm): + | growth (Staphylococcus aureus; 30 ppm): - | growth (Staphylococcus aureus; 50 ppm): - | growth (Staphylococcus aureus; 100 ppm): - | growth (coryne bacteria; 10 ppm): + | growth (coryne bacteria; 20 ppm): - | growth (coryne bacteria; 30 ppm): - | growth (coryne bacteria; 50 ppm): - | growth (coryne bacteria; 100 ppm): - | growth (indigenous skin bacteria; 10 ppm): + | growth (indigenous skin bacteria; 20 ppm): + | growth (indigenous skin bacteria; 30 ppm): - | growth (indigenous skin bacteria; 50 ppm): - | growth (indigenous skin bacteria; 100 ppm): - | growth (acne bacteria; 10 ppm): - | growth (acne bacteria; 20 ppm): - | growth (acne bacteria; 30 ppm): - | growth (acne bacteria; 50 ppm): - | growth (acne bacteria; 100 ppm): -

Reference: patent US5753610A, “Perfume containing (6E) -2,3-dihydrofarnesol” (Takasago International Corporation, priority 1995, dated 1998)
